Source: patent publication US20100029012A1, “Method for identifying modulators of the NRF2-KEAP1-AREP pathway” (priority 2006, published 2010)
These are yes or no findings as the source states them, for the method shown. Some binding calls cover weakened binding; strength is not graded here.

Chains of the proteins cited; added tags and fusions are not shown. Residues count along the entry.
UniProt Q14145, residues 322-609: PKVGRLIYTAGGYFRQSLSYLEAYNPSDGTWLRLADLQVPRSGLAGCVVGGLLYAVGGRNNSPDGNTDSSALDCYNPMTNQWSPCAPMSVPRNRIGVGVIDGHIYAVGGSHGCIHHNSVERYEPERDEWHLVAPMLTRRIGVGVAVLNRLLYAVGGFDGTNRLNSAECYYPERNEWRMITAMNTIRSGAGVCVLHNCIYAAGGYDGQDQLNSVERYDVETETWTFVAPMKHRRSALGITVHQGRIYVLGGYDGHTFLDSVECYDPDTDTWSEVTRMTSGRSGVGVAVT

Tests used:
[1] = target: T1, His-tagged Keap1-kelch domain polypeptide (Homo sapiens, UniProt Q14145); assay: ion-based radioligand competition assay, His-tagged Keap1-kelch domain polypeptide on nickel-coated plates, 3H-labeled Peptide 2 as tracer
[2] = target: T1, His-tagged Keap1-kelch domain polypeptide; assay: antibody-based radioligand competition assay, His-tagged Keap1-kelch domain polypeptide captured by mouse anti-His antibody on anti-mouse IgG plates, 3H-labeled Peptide 2 as tracer

binding [1]: binds
binding [2]: binds
B1: Nrf2 Peptide 2 (unlabeled), NH2-…-OH (peptide)
peptide: QLDEETGEFLPIQ
